Experimental data published in the supplement of paper PMC7752906.
Counter-ions that a name gives are not always drawn. This is one part of the list. Single values are uncertain here, since repeats match poorly.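 Wells held roughly 40 S. mansoni schistosomula, imaged in bright field over time against wells given 0.1% DMSO. The paper defines hits as drugs with a Mahalanobis distance of at least 2.47, three standard deviations above the DMSO control mean. Degeneracy is the proportion of worms classified as opaque.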

These compounds were tested on Schistosoma mansoni schistosomula (assay: degeneracy (percent of somules classified as degenerate/opaque); higher = more parasite degeneration/death; extreme values may be limits of the assay). Details: 10 µM; 72 h.

Structure (SMILES) | degeneracy [%]
CC1(C)S[C@@H]2[C@H](NC(=O)[C@H](N)c3ccc(O)cc3)C(=O)N2[C@H]1C(=O)O [Amoxicillin] | 0
CCC(=O)O[C@@H](O[P@](=O)(CCCCc1ccccc1)CC(=O)N1C[C@H](C2CCCCC2)C[C@H]1C(=O)O)C(C)C [Fosinopril] | 23.8
COc1cccc2c1C(=O)c1c(O)c3c(c(O)c1C2=O)C[C@@](O)(C(=O)CO)C[C@@H]3O[C@H]1C[C@H](N)[C@H](O)[C@H](C)O1 [Doxorubicin] | 0
O=C(O)CC(O)(CC(=O)O)C(=O)O [Citric Acid] | 5.66
N=C(N)NC(=O)Cc1c(Cl)cccc1Cl [Guanfacine Hydrochloride] | 2.27
CC1CNc2c(cccc2S(=O)(=O)N[C@@H](CCCNC(=N)N)C(=O)N2CC[C@@H](C)C[C@@H]2C(=O)O)C1 (some centres not stated) [Argatroban] | 5.41
CN(C)CCN(Cc1ccccc1)c1ccccn1 [Tripelennamine] | 14.3
CN1C(=O)CC(c2ccccc2)C1=O (configuration not stated) [Phensuccimide] | 2.7
Nc1ccn([C@@H]2O[C@H](CO)[C@@H](O)C2(F)F)c(=O)n1 [Gemcitabine] | 0
CC(=O)O[C@@]12CO[C@@H]1C[C@H](O)[C@@]1(C)C(=O)[C@H](O)C3=C(C)[C@@H](OC(=O)[C@H](O)[C@@H](NC(=O)OC(C)(C)C)c4ccccc4)C[C@@](O)([C@@H](OC(=O)c4ccccc4)[C@H]21)C3(C)C [Docetaxel] | 92.3
C[C@]12CC[C@@H]3c4ccc(O)cc4CC[C@H]3[C@@H]1CC[C@@H]2O [Beta-estradiol] | 11.1
C[C@]12CC[C@@H]3c4ccc(O)cc4CC[C@H]3[C@@H]1CC[C@@H]2O [Estradiol] | 7.5
CCN(CC)C(=O)c1cccc(C)c1 [Deet, Diethyltoluamide] | 2.7
CCN(CC)C(=O)c1cccnc1 [Nikethamide] | 3.57
CCCN(CCC)S(=O)(=O)c1ccc(C(=O)O)cc1 [Probenecid] | 8
CN(C)CC/C=C1/c2ccccc2Sc2ccc(Cl)cc21 [Chlorprothixene Hydrochloride] | 100
COc1ccc2[nH]c([S+]([O-])Cc3ncc(C)c(OC)c3C)nc2n1 (configuration not stated) [Tenatoprazole] | 0
O=C(O)CCCCC(=O)O [Adipic Acid, Hexanedioic Acid] | 9.09
NC[C@@H]1CC[C@@H](N)[C@@H](O[C@H]2[C@H](O)[C@@H](O[C@H]3O[C@H](CO)[C@@H](O)[C@H](N)[C@H]3O)[C@H](N)C[C@@H]2N)O1 [Dibekacin] | 17.1
N=C(N)NS(=O)(=O)c1ccc(N)cc1 [Sulfaguanidine] | 14.3
Cc1ncc(CO)c(CO)c1O [Pyridoxine] | 8.57
COc1cc(C(=O)NCCCCCC(=O)O)cc(OC)c1OC [Capobenic Acid] | 14.3
CC1=C(C(=O)O)N2C(=O)[C@@H](NC(=O)[C@H](N)C3=CCC=CC3)[C@H]2SC1 [Cephradine] | 12.8
N[C@@H](CCC(=O)N[C@@H](CS)C(=O)NCC(=O)O)C(=O)O [Glutathione] | 0

Structure (SMILES) | degeneracy [%]
CCCCC(CC)CCC(CC(C)C)OS(=O)(=O)O (configuration not stated) [Sodium Tetradecyl Sulfate] | 100
COc1ccc2cc([C@H](C)CO)ccc2c1 [Naproxol] | 4.35
C#C[C@]1(OC(C)=O)CC[C@H]2[C@@H]3CCC4=CC(=NO)CC[C@@H]4[C@H]3CC[C@@]21CC (mixture of isomers) [Norgestimate] | 27.6
Clc1ccc(CO/N=C(\Cn2ccnc2)c2ccc(Cl)cc2Cl)c(Cl)c1 [Oxiconazole] | 18.9
Clc1ccc(Cn2c(CN3CCCC3)nc3ccccc32)cc1 [Clemizole Hydrochloride] | 100
CCCCCCCCCCCCCCCC(=O)OC[C@@H](NC(=O)C(Cl)Cl)[C@H](O)c1ccc([N+](=O)[O-])cc1 [Chloramphenicol Palmitate] | 12.9
[O-][n+]1cccc(CO)c1 [Mepiroxol] | 100
Cc1ccnc(NS(=O)(=O)c2ccc(N)cc2)n1 [Sulfamerazine] | 100
NC(=O)OCC(COC(N)=O)c1ccccc1 [Felbamate] | 9.43
COC(=O)N[C@H](C(=O)N[C@@H](Cc1ccccc1)[C@@H](O)CN(Cc1ccc(-c2ccccn2)cc1)NC(=O)[C@@H](NC(=O)OC)C(C)(C)C)C(C)(C)C [Atazanavir] | 6.25
NCCCC(O)(P(=O)(O)O)P(=O)(O)O [Alendronate Sodium] | 6.9
CNC[C@H](O)[C@@H](O)[C@H](O)[C@H](O)CO [Meglumine] | 2.08
CCCCNc1cc(C(=O)O)cc(S(N)(=O)=O)c1Oc1ccccc1 [Bumetanide] | 10
CC(C)n1c(/C=C/C(O)CC(O)CC(=O)O)c(-c2ccc(F)cc2)c2ccccc21 (configuration not stated) [fluvastatin] | 82.6
CC(C)CCCC(C)N (configuration not stated) [Octodrine] | 8.7
CC(=O)N[C@@H](CS)C(=O)O [Acetylcysteine] | 0
OC(c1cc(C(F)(F)F)nc2c(C(F)(F)F)cccc12)C1CCCCN1 (configuration not stated) [mefloquine] | 100
CNCCCC12CCC(c3ccccc31)c1ccccc12 [Maprotiline] | 100
CC1(C)C[C@@H]1C(=O)N/C(=C\CCCCSC[C@H](N)C(=O)O)C(=O)O [Cilastatin] | 2.94
C[C@@H](O)[C@H]1C(=O)N2C(C(=O)O)=C(S[C@@H]3CN[C@H](C(=O)N(C)C)C3)[C@H](C)[C@H]12 [Meropenem] | 0
Cc1cc(C)cc(OCC2CNC(=O)O2)c1 (configuration not stated) [Metaxalone] | 4
CC(=O)O[C@H]1C[C@@H]2CC[C@@H]3[C@H](CC[C@@]4(C)[C@H]3C[C@H]([N+]3(C)CCCCC3)[C@@H]4OC(C)=O)[C@@]2(C)C[C@@H]1N1CCCCC1 [Vecuronium Bromide] | 0
CC1(C)O[C@@H]2C[C@H]3[C@@H]4CCC5=CC(=O)CC[C@]5(C)[C@@]4(F)[C@@H](O)C[C@]3(C)[C@]2(C(=O)CCl)O1 [Halcinonide] | 3.33
C[C@]12C=CC(=O)C=C1CC[C@H]1[C@@H]3C[C@@H](O)[C@](O)(C(=O)CO)[C@@]3(C)C[C@H](O)[C@@]12F [Triamcinolone] | 7.14

Laid out differently: results already given

| Structure (SMILES) | degeneracy [%] |
| --- | --- |
| CC1(C)S[C@@H]2[C@H](NC(=O)[C@H](N)c3ccc(O)cc3)C(=O)N2[C@H]1C(=O)O [Amoxicillin] | 0 |
| CC1CNc2c(cccc2S(=O)(=O)N[C@@H](CCCNC(=N)N)C(=O)N2CC[C@@H](C)C[C@@H]2C(=O)O)C1 (some centres not stated) [Argatroban] | 5.41 |
| C[C@]12CC[C@@H]3c4ccc(O)cc4CC[C@H]3[C@@H]1CC[C@@H]2O [Beta-estradiol] | 11.1 |
| C[C@]12CC[C@@H]3c4ccc(O)cc4CC[C@H]3[C@@H]1CC[C@@H]2O [Estradiol] | 7.5 |
| CCCN(CCC)S(=O)(=O)c1ccc(C(=O)O)cc1 [Probenecid] | 8 |
| O=C(O)CCCCC(=O)O [Adipic Acid, Hexanedioic Acid] | 9.09 |
| N=C(N)NS(=O)(=O)c1ccc(N)cc1 [Sulfaguanidine] | 14.3 |
| COc1cc(C(=O)NCCCCCC(=O)O)cc(OC)c1OC [Capobenic Acid] | 14.3 |
| N[C@@H](CCC(=O)N[C@@H](CS)C(=O)NCC(=O)O)C(=O)O [Glutathione] | 0 |
| C#C[C@]1(OC(C)=O)CC[C@H]2[C@@H]3CCC4=CC(=NO)CC[C@@H]4[C@H]3CC[C@@]21CC (mixture of isomers) [Norgestimate] | 27.6 |
| Clc1ccc(Cn2c(CN3CCCC3)nc3ccccc32)cc1 [Clemizole Hydrochloride] | 100 |
| [O-][n+]1cccc(CO)c1 [Mepiroxol] | 100 |
| Cc1ccnc(NS(=O)(=O)c2ccc(N)cc2)n1 [Sulfamerazine] | 100 |
| COC(=O)N[C@H](C(=O)N[C@@H](Cc1ccccc1)[C@@H](O)CN(Cc1ccc(-c2ccccn2)cc1)NC(=O)[C@@H](NC(=O)OC)C(C)(C)C)C(C)(C)C [Atazanavir] | 6.25 |
| NCCCC(O)(P(=O)(O)O)P(=O)(O)O [Alendronate Sodium] | 6.9 |
| CNCCCC12CCC(c3ccccc31)c1ccccc12 [Maprotiline] | 100 |
| CC1(C)O[C@@H]2C[C@H]3[C@@H]4CCC5=CC(=O)CC[C@]5(C)[C@@]4(F)[C@@H](O)C[C@]3(C)[C@]2(C(=O)CCl)O1 [Halcinonide] | 3.33 |
| C[C@]12C=CC(=O)C=C1CC[C@H]1[C@@H]3C[C@@H](O)[C@](O)(C(=O)CO)[C@@]3(C)C[C@H](O)[C@@]12F [Triamcinolone] | 7.14 |

(continued)

Structure (SMILES) | degeneracy [%]
CCN(CC)C(=O)/C(C#N)=C/c1cc(O)c(O)c([N+](=O)[O-])c1 [Entacapone] | 2.04
C[C@@H]1O[C@@H](OC[C@H]2O[C@@H](Oc3c(-c4ccc(OCCO)c(OCCO)c4)oc4cc(OCCO)cc(O)c4c3=O)[C@H](O)[C@@H](O)[C@@H]2O)[C@H](O)[C@H](O)[C@H]1O [Troxerutin] | 9.68
CN1C(=O)OC(C)(C)C1=O [Trimethadione] | 4.35
CC(=O)CCCCn1c(=O)c2c(ncn2C)n(C)c1=O [Pentoxifylline] | 7.89
Nc1c(CC(=O)O)cccc1C(=O)c1ccc(Br)cc1 [Bromfenac] | 6.82
COc1c(C)c2c(c(O)c1C/C=C(\C)CCC(=O)O)C(=O)OC2 [Mycophenolic Acid] | 9.09
O=C(Oc1ccccc1C(=O)O)c1ccccc1O [Salsalate] | 5.56
CCN1CCCC(OC(=O)C(c2ccccc2)c2ccccc2)C1 (configuration not stated) [Piperidolate Hydrochloride] | 2.94
NCCNCCNCCN [Trientine Hydrochloride] | 13
O=C(NCCN1CCOCC1)c1ccc(Cl)cc1 [Moclobemide] | 6.67
CCCC1O[C@@H]2C[C@H]3[C@@H]4CCC5=CC(=O)C=C[C@]5(C)[C@H]4[C@@H](O)C[C@]3(C)[C@]2(C(=O)CO)O1 (some centres not stated) [Budesonide] | 6.45
Nc1nc(N)c2nc(CNc3ccc(C(=O)N[C@@H](CCC(=O)O)C(=O)O)cc3)cnc2n1 [Aminopterin] | 0
CC(C(=O)O)c1cccc(C(=O)c2ccccc2)c1 (configuration not stated) [Ketoprofen] | 17.2
CCOC(=O)c1ncn2c1CN(C)C(=O)c1cc(F)ccc1-2 [Flumazenil] | 15.4
C#C[C@]1(O)CC[C@H]2[C@@H]3CCc4cc(O)ccc4[C@H]3CC[C@@]21C [Ethinylestradiol] | 13.5
CC(C)(C)NC(=O)[C@@H]1C[C@@H]2CCCC[C@@H]2CN1C[C@@H](O)[C@H](Cc1ccccc1)NC(=O)[C@H](CC(N)=O)NC(=O)c1ccc2ccccc2n1 [Saquinavir] | 11.1
CCCCCN(CCCCC)C(=O)C(CCC(=O)O)NC(=O)c1ccc(Cl)c(Cl)c1 (configuration not stated) [Lorglumide Sodium] | 16.1
COc1ccc(C(=O)c2ccccc2)c(O)c1 [Oxybenzone] | 16.7
COc1ncnc(NS(=O)(=O)c2ccc(N)cc2)c1OC [Sulfadoxine] | 0
CC(=O)OCC(=O)[C@@]1(O)[C@H](C)C[C@H]2[C@@H]3CCC4=CC(=O)C=C[C@]4(C)[C@@]3(F)[C@@H](O)C[C@@]21C [Dexamethasone Acetate] | 8.11
COc1ccc(C(=O)CC(=O)c2ccc(C(C)(C)C)cc2)cc1 [Avobenzone] | 2.56
CCN(CC)CCOc1ccc2c(c1)C(=O)c1cc(OCCN(CC)CC)ccc1-2 [Tilorone] | 100
O=C(CCCCCCC(=O)Nc1ccccc1)NO [Vorinostat] | 17.1
CC[C@H]1OC(=O)C[C@@H](O)[C@H](C)[C@@H](O[C@@H]2O[C@H](C)[C@@H](O[C@H]3C[C@@](C)(O)[C@@H](O)[C@H](C)O3)[C@H](N(C)C)[C@H]2O)[C@@H](CC=O)C[C@@H](C)C(=O)/C=C/C(C)=C/[C@@H]1CO[C@@H]1O[C@H](C)[C@@H](O)[C@@H](OC)[C@H]1OC [Tylosin Tartrate] | 2.38
